Measurements: publication PMC5481349
These are yes or no findings as the source states them, for the method shown. For some of these results: Binding seen in cells or lysates may run through a third protein. For some of these results: A result given as binding can be weak or reduced; the word gives no strength. Tags and fused reporters may be left off the sequences shown.

How the values were obtained:
[1] = target: T1, His-σ^32 (E. coli heat shock factor σ^32, RpoH) (E. coli C600) (UniProt P0AGB3); assay: co-IP; purified 6His-BnTR1 and mutant forms (prey) incubated with DnaK or His-σ^32; control without DnaK or His-σ^32; input lane used to adjust the concentration of BnTR1 forms
T1 sequence: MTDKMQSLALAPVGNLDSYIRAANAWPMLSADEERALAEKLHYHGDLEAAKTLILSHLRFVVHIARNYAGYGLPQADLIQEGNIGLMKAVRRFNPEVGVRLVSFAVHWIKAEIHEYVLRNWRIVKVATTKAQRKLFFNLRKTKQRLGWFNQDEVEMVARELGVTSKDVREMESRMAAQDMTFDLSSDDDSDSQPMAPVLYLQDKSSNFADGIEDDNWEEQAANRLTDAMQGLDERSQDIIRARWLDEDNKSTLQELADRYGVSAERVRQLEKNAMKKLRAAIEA

[2] = target: T2, σ^32 (RpoH), bacterial two-hybrid fusion (E. coli) (UniProt P0AGB3); assay: two-hybrid; bacterial two-hybrid system
T2 sequence: T1 sequence

| Substance | binding [1] | binding [2] |
| --- | --- | --- |
| BnTR1ΔZn1 (BnTR1 C66S/C69S), purified (Brassica napus) (enzyme) | no binding |  |
| BnTR1ΔZn2 (BnTR1 C82S/C84S), purified (Brassica napus) (enzyme) | binds |  |
| 6His-BnTR1 (RING domain E3 ligase from Brassica napus), wild type (enzyme) | binds |  |
| BnTR1ΔZn1 (BnTR1 C66S/C69S), bacterial two-hybrid fusion (Brassica napus) (enzyme) |  | no binding |
